Experimental data: patent US11352391B2 (Dignify Therapeutics, LLC, priority 2017, dated 2022)

Assay: general procedure: Fmoc solid-phase peptide synthesis
Conditions: whole synthesis

| Substance | final HPLC purity |
| --- | --- |
| Asp-Lys-Phe-Val-Gly-(NMe-Leu)-Met-NH2 | 98% |
| Asp-Lys-Phe-Val-Gly-Leu-Met-NH2 | 95% |
| Asp-Lys-Phe-Val-Gly-Leu-Nle-NH2 | 95% |
| DKFV[βAla]LM-NH2 | 96% |
| DKFV[βAla]L[Nle]-NH2 | 99% |
| DRFVGLM-NH2 | 96% |
| DRFVGL[Nle]-NH2 | 99% |
| DRFVG[NMeL]M-NH2 | 98% |
| DRFVG[NMeL][Nle]-NH2 | 99% |
| DRFV[βAla]LM-NH2 | 99% |
| DRFV[βAla]L[Nle]-NH2 | 97% |

Where no end group is shown, it is not given here. [ ]: non-standard residue; d: D form. NMeL = CN[C@@H](CC(C)C)C(=O)O; Nle = CCCC[C@H](N)C(=O)O; βAla = NCCC(=O)O
